Reference: PubChem BioAssay AID2685 (National Center for Advancing Translational Sciences (NCATS), 2010)
The other results are listed elsewhere or left out. Shown are side measurements of this screen, not its main read-out; they come without a call. Most of these compounds were active or inconclusive in the main read-out, so they are no random draw. The note in brackets gives the kind of curve behind each potency; many fits are weak.

Test: qHTS Assay for Lipid Storage Modulators in Drosophila S3 Cells;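 as to cell number change: cells counted by Cell Tracker Red CMTPX staining in the red channel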
Conditions: BODIPY lipid droplet fluorescence, 18-24 h; for cell number change: measured here: cell count max response, cells fed with added oleic acid
How it was run: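 Drosophila S3 cells got compounds at several concentrations plus oleic acid (400 uM solution). Laser-scanning cytometry with 488 nm excitation read lipid droplets at 500-530 nm and cells at 575-640 nm. Percent activity was relative to 20 uM Triacsin C.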

[1] = measured here: lipid fluorescence (Fed channel) AC50, cells fed with added oleic acid
[2] = measured here: cell number channel AC50, cells fed with added oleic acid

Row | Structure (SMILES) | cell number change | AC50 [1] | AC50 [2]
1 | O=C(/C=C/c1ccccc1)NCc1ccco1 | -6.26% | 4.11 µM [falling, partial curve, poor fit] | –
2 | CC(Nc1cc(N2CCN(C(=O)C(C)(C)C)CC2)ccc1[N+](=O)[O-])c1ccccc1 (configuration not stated) | 68.2% | – | –
3 | Cc1ccc(/C=C\c2nccc3c2[nH]c2ccccc23)cc1 | 2.02% | 0.146 µM [falling, full curve, poor fit] | 0.146 µM [falling, full curve, poor fit]
4 | Cc1ccc(CC(=O)NCc2ccc(Cl)cc2)cc1 | -20.9% | 1.3 µM [falling, partial curve, poor fit] | –
5 | CC1(C)CC(=O)c2cc(NC(=O)c3ccc(F)cc3)c(=O)oc2C1 | 20% | 29.1 µM [rising, single point] | –
6 | COc1ccc(-c2cc(C)no2)cc1S(=O)(=O)N(C)c1cccc(C)c1 | -21.6% | 20.6 µM [falling, single point] | –
7 | CCOC(=O)COn1c(-c2cccc(Cl)c2)nc2ccc([N+](=O)[O-])cc21 | 25.2% | 18.4 µM [rising, single point] | –
8 | O=C(NCc1cn2ccccc2n1)c1ccc2c(c1)OCO2 | 56.5% | 18.4 µM [rising, partial curve] | 11.6 µM [rising, partial curve]
9 | Cn1c2ccccc2c(=O)c2ccc(F)cc21 | 24.9% | 0.92 µM [falling, full curve, poor fit] | –
10 | c1ccc(CCn2c(SCc3ccccc3)nnc2-c2ccncc2)cc1 | 1.48% | 0.103 µM [rising, full curve, poor fit] | 0.103 µM [rising, full curve, poor fit]
11 | Cc1ccc(-c2n[nH]c(=O)c3ccccc23)cc1S(=O)(=O)NC(C)(C)C | -15.6% | 20.6 µM [falling, single point] | –
12 | CC12CCC(C(=O)N(CCC#N)CCC#N)(CC1=O)C2(C)C (configuration not stated) | 1.76% | 23.1 µM [falling, single point] | –
13 | COc1ccc(S(=O)(=O)NCC2CCCN(Cc3ccc(OC)cc3F)C2)cc1 (configuration not stated) | -13.9% | 6.51 µM [rising, single point] | –
14 | O=C(COc1ccc2ccc(=O)oc2c1)Nc1ccc2c(c1)OCCO2 | 16% | – | 0.0058 µM [rising, full curve, poor fit]
15 | CC(OC(=O)CNC(=O)COc1ccccc1)C(=O)N(C)Cc1ccccc1 (configuration not stated) | -24.1% | – | 0.0058 µM [falling, full curve, poor fit]
16 | O=C(CCNC(=O)C1CCN(S(=O)(=O)c2ccc(F)cc2)CC1)Nc1nccs1 | 17.2% | – | –
17 | CCC1SC2=NC(C)=C(C(=O)OCC(C)C)C(/C=C/c3ccccc3OC)N2C1=O (configuration not stated) | -8.33% | 16.4 µM [falling, single point] | –
18 | Cn1c(=O)c2c(ncn2CC(O)CNc2cccc(Cl)c2)n(C)c1=O (configuration not stated) | -2.24% | 11.6 µM [falling, partial curve] | –
19 | C=CCNC(=S)N1CCN(c2ncc(C(F)(F)F)cc2Cl)CC1 | -49.5% | – | –

Row | Structure (SMILES) | cell number change | AC50 [1] | AC50 [2]
20 | COc1cc(NC(=O)C2CCN(c3cnccn3)CC2)cc(OC)c1OC | -12.7% | 18.4 µM [rising, partial curve] | –
21 | CC(C)CCNC(=O)CCCOc1ccccc1 | 0.931% | 0.00461 µM [falling, full curve, poor fit] | –
22 | COc1ccc2ccccc2c1CNCc1ccccn1 | -4.45% | – | 0.517 µM [falling, single point]
23 | O=C(CCCOc1ccc(Cl)cc1)NCC1CCCO1 (configuration not stated) | -44.1% | – | 8.2 µM [falling, partial curve]
24 | CCc1nnc(SCC(=O)Nc2ccc(N3CCOCC3)cc2)o1 | -10.1% | 10.3 µM [falling, partial curve] | –
25 | O=C(O)c1ccc(CSCc2ccccc2F)o1 | -78.8% | – | 29.1 µM [falling, single point]
26 | CCn1c(SCC(=O)Nc2cc(C)on2)nnc1-c1ccc(S(=O)(=O)N2CCCC2)cc1 | 10.3% | 6.51 µM [falling, single point] | 0.231 µM [falling, full curve, poor fit]
27 | Cc1cc(-c2[nH]nc3c2C(c2ccc(Cl)cc2)C(C#N)=C(N)O3)c(C)s1 (configuration not stated) | -49.7% | 18.4 µM [falling, single point] | 29.1 µM [falling, single point]
28 | CS(=O)(=O)c1ccc2nc(NC(=O)C3CC(=O)N(c4ccccc4)C3)sc2c1 (configuration not stated) | -2.08% | – | –
29 | CCOC(=O)N1CCN(C(=O)CSCC(=O)N=c2sc3ccccc3n2C)CC1 | 67.1% | 0.731 µM [rising, full curve] | 25.9 µM [rising, single point]
30 | CCOc1ccc(C(=O)Nc2nncs2)cc1OCC | – | – | 5.8 µM [falling, single point]
31 | Cc1cc(C)nc(N(C#N)Cc2ccccc2C)n1 | 24.9% | 32.6 µM [rising, single point] | –
32 | Cc1c(C(=O)OCC(=O)c2ccc3c(c2)OCCO3)oc2ccccc12 | -12.1% | – | –
33 | NS(=O)(=O)c1ccc(CCNC(=O)c2cc3ccccc3oc2=O)cc1 | 34.3% | 29.1 µM [falling, single point] | 0.146 µM [rising, full curve, poor fit]
34 | CCN(C(=O)CSc1nnc(-c2cccs2)o1)C1CCS(=O)(=O)C1 (configuration not stated) | – | 0.116 µM [falling, single point] | –
35 | CCOc1cc(NC(=S)NCCCN2CCOCC2)c(OCC)cc1NC(=O)C1CC1 | 1.35% | 0.58 µM [rising, full curve, poor fit] | –
36 | Cc1c(Cl)cccc1NC(=S)N(Cc1cccnc1)Cc1ccccc1Cl | 34.2% | – | –
37 | O=c1[nH]c(CN2CCOCC2)nc2cc(Cl)ccc12 | -23.5% | 0.146 µM [falling, full curve] | 0.0058 µM [falling, full curve, poor fit]
38 | COc1ccc(/C=N/S(=O)(=O)c2cccs2)cc1 | -30.8% | 5.17 µM [falling, full curve] | 0.206 µM [falling, full curve, poor fit]

Given tab-delimited: part of the list above
Row	Structure (SMILES)	cell number change	AC50 [1]	AC50 [2]
20	COc1cc(NC(=O)C2CCN(c3cnccn3)CC2)cc(OC)c1OC	-12.7%	18.4 µM [rising, partial curve]	–
33	NS(=O)(=O)c1ccc(CCNC(=O)c2cc3ccccc3oc2=O)cc1	34.3%	29.1 µM [falling, single point]	0.146 µM [rising, full curve, poor fit]
38	COc1ccc(/C=N/S(=O)(=O)c2cccs2)cc1	-30.8%	5.17 µM [falling, full curve]	0.206 µM [falling, full curve, poor fit]
